PubChem BioAssay AID686943, Drosophila RNAi Screening Center – 2013

Screen: 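Search across the genome for regulators of signalling from receptor tyrosine kinase to ERK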 (primary screen)
Cell system: Drosophila S2R+ haemocyte-like cells expressing YFP-tagged ERK (Rolled)
Reagents: long dsRNA against Drosophila genes
Challenge: insulin stimulation versus unstimulated cells; dose and duration not given
Read-out: 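Antibody staining for doubly phosphorylated ERK divided by ERK-YFP signal, as plate z-scores, in insulin-treated and untreated cells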
Scale: replicate 1, z-score of dpERK with insulin and replicate 2, z-score of dpERK with insulin: higher = more active ERK per ERK-YFP after insulin
In all, the deposit lists about 23,000 reagents; below is a random part of those that have a named target and a result. 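Extra replicates exist only for a retested subset of genes; insulin dose and duration not given; both raised and lowered dpERK matter.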 Not all columns of the deposit are shown. Reagent sequences are not shown. Not given: the amount of reagent, the time to read-out.

{"gene": "l(2)k01209", "DRSC id": "DRSC06889", "replicate 1, z-score of dpERK with insulin": -0.21, "replicate 2, z-score of dpERK with insulin": 0.26}
{"gene": "CG17380", "DRSC id": "DRSC15230", "replicate 1, z-score of dpERK with insulin": 0.34, "replicate 2, z-score of dpERK with insulin": 0.06}
{"gene": "rump", "DRSC id": "DRSC16480", "replicate 1, z-score of dpERK with insulin": -0.72, "replicate 2, z-score of dpERK with insulin": -0.16}
{"gene": "CG11828", "DRSC id": "DRSC14394", "replicate 1, z-score of dpERK with insulin": 0.6, "replicate 2, z-score of dpERK with insulin": 0.02}
{"gene": "CG11828", "DRSC id": "DRSC22580", "replicate 1, z-score of dpERK with insulin": 0.22, "replicate 2, z-score of dpERK with insulin": 0.34}
{"gene": "rngo", "DRSC id": "DRSC19903", "replicate 1, z-score of dpERK with insulin": 0.45, "replicate 2, z-score of dpERK with insulin": -0.28}
{"gene": "CG7778", "DRSC id": "DRSC03067", "replicate 1, z-score of dpERK with insulin": -0.14, "replicate 2, z-score of dpERK with insulin": 0.76}
{"gene": "CG42544", "DRSC id": "DRSC12451", "replicate 1, z-score of dpERK with insulin": -1.7, "replicate 2, z-score of dpERK with insulin": -0.63}
{"gene": "Edg84A", "DRSC id": "DRSC12594", "replicate 1, z-score of dpERK with insulin": 0.33, "replicate 2, z-score of dpERK with insulin": -0.01}
{"gene": "CAH7", "DRSC id": "DRSC15524", "replicate 1, z-score of dpERK with insulin": 0.58, "replicate 2, z-score of dpERK with insulin": 0.51}
{"gene": "CG6830", "DRSC id": "DRSC16124", "replicate 1, z-score of dpERK with insulin": -0.01, "replicate 2, z-score of dpERK with insulin": 0.35}
{"gene": "CG10863", "DRSC id": "DRSC08145", "replicate 1, z-score of dpERK with insulin": 0.6, "replicate 2, z-score of dpERK with insulin": -1.07}
{"gene": "Dbp73D", "DRSC id": "DRSC11142", "replicate 1, z-score of dpERK with insulin": -0.39, "replicate 2, z-score of dpERK with insulin": -0.09}
{"gene": "GABPI", "DRSC id": "DRSC00494", "replicate 1, z-score of dpERK with insulin": -0.48, "replicate 2, z-score of dpERK with insulin": -0.41}
{"gene": "mei-38", "DRSC id": "DRSC18564", "replicate 1, z-score of dpERK with insulin": -0.53, "replicate 2, z-score of dpERK with insulin": -1.17}
{"gene": "CG16986", "DRSC id": "DRSC08502", "replicate 1, z-score of dpERK with insulin": 0.89, "replicate 2, z-score of dpERK with insulin": 0.86}
{"gene": "Hexo1", "DRSC id": "DRSC08663", "replicate 1, z-score of dpERK with insulin": 0.47, "replicate 2, z-score of dpERK with insulin": 0.12}
{"gene": "ppk16", "DRSC id": "DRSC02736", "replicate 1, z-score of dpERK with insulin": 0.91, "replicate 2, z-score of dpERK with insulin": -0.53}
{"gene": "Ddx1", "DRSC id": "DRSC11862", "replicate 1, z-score of dpERK with insulin": -0.43, "replicate 2, z-score of dpERK with insulin": -0.21}
{"gene": "CG3651", "DRSC id": "DRSC03730", "replicate 1, z-score of dpERK with insulin": 0.38, "replicate 2, z-score of dpERK with insulin": 0.38}
{"gene": "kl-3 (retired record)", "DRSC id": "DRSC20730", "replicate 1, z-score of dpERK with insulin": -0.23, "replicate 2, z-score of dpERK with insulin": -0.78}
{"gene": "kl-3 (retired record)", "DRSC id": "DRSC20891", "replicate 1, z-score of dpERK with insulin": -0.06, "replicate 2, z-score of dpERK with insulin": -0.31}
{"gene": "kl-3 (retired record)", "DRSC id": "DRSC20934", "replicate 1, z-score of dpERK with insulin": -0.11, "replicate 2, z-score of dpERK with insulin": 1.09}

Entries above whose target name starts with R or r:
{"gene": "rump", "DRSC id": "DRSC16480", "replicate 1, z-score of dpERK with insulin": -0.72, "replicate 2, z-score of dpERK with insulin": -0.16}
{"gene": "rngo", "DRSC id": "DRSC19903", "replicate 1, z-score of dpERK with insulin": 0.45, "replicate 2, z-score of dpERK with insulin": -0.28}
